Some of the results follow. The data scatter; read single values as rough.

The chains behind the UniProt entries cited, without tags or fusion partners. Where a name states a change or a piece, a line headed by the entry shows the natural chain unless it says otherwise. Residues count along the entry.
UniProt Q13685: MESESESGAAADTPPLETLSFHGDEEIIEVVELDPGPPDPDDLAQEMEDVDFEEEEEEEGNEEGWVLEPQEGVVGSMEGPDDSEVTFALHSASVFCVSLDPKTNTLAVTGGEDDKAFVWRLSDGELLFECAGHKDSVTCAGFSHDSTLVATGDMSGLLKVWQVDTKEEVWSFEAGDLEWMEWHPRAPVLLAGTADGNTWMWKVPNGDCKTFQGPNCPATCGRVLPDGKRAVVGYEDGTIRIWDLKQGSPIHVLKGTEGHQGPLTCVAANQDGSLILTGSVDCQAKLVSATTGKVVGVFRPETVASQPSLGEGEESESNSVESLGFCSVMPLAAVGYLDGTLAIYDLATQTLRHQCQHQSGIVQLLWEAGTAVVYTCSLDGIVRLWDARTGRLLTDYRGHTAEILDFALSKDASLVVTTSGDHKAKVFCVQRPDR
UniProt Q9NRG9: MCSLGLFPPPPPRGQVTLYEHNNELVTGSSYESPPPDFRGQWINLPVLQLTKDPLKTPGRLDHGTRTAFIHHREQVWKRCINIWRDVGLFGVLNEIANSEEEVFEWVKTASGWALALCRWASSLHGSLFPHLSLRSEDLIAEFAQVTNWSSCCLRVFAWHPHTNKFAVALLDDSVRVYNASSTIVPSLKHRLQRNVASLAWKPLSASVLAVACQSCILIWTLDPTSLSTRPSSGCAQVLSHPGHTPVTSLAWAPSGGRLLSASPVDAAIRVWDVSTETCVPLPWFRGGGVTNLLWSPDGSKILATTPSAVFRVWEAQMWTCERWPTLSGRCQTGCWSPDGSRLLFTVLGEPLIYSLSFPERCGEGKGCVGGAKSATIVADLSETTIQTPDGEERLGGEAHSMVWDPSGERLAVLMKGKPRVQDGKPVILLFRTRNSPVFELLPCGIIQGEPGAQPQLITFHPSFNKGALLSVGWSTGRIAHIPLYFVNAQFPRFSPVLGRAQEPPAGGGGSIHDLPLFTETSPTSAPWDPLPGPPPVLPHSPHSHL
UniProt P09110, 217-237: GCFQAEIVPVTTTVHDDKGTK
UniProt O95870: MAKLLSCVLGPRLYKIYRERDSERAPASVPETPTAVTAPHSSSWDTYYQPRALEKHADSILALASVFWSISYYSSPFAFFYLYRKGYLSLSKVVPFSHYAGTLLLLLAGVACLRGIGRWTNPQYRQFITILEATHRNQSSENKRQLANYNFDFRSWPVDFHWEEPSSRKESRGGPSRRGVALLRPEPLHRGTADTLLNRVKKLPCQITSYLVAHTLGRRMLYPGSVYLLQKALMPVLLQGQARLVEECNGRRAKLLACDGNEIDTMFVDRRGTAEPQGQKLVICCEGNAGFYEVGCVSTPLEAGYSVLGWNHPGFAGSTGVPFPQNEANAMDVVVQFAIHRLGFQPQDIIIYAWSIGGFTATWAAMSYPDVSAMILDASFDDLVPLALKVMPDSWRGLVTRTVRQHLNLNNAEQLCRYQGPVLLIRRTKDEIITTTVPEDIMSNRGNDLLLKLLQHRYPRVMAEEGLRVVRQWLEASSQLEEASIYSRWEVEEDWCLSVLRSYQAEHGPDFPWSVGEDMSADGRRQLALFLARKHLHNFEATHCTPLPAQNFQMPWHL
UniProt Q9BTE6: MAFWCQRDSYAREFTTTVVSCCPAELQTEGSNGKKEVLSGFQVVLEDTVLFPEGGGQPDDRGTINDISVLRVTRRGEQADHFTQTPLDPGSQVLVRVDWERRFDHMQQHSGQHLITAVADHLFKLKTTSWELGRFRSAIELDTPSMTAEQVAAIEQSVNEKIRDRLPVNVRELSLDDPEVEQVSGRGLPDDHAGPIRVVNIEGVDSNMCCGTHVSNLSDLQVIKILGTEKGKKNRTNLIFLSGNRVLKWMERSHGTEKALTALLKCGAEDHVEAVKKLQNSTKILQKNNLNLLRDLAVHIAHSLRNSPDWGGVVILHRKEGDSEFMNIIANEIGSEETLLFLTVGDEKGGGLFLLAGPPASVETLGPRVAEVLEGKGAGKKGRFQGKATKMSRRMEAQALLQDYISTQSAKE
UniProt Q9NRK6, 570-605: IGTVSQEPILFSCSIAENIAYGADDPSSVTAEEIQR
UniProt Q8WTS1: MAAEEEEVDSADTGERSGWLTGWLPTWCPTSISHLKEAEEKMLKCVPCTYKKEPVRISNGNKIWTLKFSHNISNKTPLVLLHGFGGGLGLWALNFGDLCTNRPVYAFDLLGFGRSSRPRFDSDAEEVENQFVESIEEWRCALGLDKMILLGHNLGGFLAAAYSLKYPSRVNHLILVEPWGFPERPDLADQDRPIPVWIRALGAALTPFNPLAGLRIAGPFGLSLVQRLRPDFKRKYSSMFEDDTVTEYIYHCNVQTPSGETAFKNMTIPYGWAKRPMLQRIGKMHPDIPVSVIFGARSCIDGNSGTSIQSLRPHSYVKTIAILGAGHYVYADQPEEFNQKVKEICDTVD
UniProt P33527: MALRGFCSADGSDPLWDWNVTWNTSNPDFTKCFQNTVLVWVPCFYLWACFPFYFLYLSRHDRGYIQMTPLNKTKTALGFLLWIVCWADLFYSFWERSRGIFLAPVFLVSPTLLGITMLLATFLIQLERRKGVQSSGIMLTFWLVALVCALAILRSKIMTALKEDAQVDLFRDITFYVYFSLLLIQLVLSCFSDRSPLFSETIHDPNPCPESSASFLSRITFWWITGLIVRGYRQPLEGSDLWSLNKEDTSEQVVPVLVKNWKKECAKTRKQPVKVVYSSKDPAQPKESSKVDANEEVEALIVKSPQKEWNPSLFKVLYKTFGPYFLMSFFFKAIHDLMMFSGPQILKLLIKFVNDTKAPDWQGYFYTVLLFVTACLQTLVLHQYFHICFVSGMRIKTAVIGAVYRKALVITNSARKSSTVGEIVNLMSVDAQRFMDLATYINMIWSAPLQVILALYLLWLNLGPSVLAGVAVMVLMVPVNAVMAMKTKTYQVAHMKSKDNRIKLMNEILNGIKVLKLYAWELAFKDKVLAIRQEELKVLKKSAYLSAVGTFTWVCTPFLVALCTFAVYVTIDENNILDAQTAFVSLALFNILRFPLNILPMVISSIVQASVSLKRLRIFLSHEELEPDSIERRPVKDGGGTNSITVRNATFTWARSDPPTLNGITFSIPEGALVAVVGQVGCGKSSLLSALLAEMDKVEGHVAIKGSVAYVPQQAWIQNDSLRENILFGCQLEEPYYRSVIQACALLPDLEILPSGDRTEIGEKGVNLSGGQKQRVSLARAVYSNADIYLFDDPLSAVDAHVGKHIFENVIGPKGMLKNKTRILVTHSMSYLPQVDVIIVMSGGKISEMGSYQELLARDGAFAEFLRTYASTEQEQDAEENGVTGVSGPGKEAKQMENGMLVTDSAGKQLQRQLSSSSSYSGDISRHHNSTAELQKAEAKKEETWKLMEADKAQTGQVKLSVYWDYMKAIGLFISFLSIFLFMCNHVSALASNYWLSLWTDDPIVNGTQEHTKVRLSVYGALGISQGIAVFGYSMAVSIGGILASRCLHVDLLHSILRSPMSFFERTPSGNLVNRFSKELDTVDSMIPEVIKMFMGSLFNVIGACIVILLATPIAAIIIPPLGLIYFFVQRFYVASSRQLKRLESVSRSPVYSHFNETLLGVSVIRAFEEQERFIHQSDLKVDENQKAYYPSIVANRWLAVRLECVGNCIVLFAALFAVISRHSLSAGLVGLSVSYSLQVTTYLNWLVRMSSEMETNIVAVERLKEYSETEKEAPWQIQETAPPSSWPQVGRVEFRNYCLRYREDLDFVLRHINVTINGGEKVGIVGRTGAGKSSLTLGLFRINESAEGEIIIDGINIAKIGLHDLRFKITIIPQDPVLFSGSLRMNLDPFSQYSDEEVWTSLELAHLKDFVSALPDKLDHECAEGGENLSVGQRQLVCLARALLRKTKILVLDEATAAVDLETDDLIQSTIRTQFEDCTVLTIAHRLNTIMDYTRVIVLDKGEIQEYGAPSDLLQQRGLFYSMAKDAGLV
UniProt P49748: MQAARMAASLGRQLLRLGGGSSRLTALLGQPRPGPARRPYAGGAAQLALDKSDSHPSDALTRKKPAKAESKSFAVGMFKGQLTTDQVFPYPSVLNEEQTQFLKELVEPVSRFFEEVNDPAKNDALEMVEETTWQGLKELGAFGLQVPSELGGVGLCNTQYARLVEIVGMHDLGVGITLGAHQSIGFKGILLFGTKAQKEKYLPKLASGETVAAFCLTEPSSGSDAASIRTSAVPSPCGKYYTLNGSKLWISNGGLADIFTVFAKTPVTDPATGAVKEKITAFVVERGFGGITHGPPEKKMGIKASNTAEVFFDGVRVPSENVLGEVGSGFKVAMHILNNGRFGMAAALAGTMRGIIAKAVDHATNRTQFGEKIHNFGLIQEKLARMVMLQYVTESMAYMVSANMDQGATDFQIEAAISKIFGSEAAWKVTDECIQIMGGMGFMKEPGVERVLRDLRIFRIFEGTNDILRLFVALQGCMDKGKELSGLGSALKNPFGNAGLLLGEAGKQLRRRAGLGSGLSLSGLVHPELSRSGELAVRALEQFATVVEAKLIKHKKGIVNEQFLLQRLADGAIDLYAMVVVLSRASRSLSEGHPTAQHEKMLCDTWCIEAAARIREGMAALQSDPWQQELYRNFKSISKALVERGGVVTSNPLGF
UniProt Q9NUJ1: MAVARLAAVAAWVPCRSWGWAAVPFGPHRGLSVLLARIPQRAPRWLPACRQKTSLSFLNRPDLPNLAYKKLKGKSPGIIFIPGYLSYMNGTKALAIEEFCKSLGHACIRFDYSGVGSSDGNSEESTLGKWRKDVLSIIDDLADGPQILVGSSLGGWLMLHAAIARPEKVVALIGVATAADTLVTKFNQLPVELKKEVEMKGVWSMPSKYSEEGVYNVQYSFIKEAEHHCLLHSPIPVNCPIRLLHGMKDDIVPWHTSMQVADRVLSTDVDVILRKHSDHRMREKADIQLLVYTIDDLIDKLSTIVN
UniProt Q9BV23: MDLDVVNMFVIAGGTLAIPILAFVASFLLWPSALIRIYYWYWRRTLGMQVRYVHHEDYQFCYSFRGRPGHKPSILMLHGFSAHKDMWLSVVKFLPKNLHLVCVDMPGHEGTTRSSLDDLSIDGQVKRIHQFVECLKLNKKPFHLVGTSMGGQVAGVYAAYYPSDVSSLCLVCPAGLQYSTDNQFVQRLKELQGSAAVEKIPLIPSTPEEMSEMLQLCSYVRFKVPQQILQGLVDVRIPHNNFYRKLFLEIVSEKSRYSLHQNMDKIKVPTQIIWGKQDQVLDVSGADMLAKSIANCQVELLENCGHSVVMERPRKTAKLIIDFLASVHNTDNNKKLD
UniProt Q9H845: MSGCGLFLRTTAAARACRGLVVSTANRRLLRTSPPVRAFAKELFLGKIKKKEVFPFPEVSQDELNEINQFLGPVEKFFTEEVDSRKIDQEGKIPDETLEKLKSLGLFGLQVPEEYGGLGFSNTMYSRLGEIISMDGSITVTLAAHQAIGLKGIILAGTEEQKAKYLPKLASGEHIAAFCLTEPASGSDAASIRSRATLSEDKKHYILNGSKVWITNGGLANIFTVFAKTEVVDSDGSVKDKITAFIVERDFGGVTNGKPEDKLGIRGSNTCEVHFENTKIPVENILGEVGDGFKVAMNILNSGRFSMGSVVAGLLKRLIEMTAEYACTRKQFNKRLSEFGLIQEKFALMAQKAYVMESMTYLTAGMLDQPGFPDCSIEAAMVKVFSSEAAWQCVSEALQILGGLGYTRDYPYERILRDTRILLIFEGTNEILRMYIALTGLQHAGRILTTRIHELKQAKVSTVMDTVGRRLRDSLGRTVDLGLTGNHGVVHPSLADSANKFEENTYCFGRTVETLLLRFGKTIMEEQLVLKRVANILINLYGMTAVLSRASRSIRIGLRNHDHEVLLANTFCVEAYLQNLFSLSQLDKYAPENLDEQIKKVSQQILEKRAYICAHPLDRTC
UniProt Q15057: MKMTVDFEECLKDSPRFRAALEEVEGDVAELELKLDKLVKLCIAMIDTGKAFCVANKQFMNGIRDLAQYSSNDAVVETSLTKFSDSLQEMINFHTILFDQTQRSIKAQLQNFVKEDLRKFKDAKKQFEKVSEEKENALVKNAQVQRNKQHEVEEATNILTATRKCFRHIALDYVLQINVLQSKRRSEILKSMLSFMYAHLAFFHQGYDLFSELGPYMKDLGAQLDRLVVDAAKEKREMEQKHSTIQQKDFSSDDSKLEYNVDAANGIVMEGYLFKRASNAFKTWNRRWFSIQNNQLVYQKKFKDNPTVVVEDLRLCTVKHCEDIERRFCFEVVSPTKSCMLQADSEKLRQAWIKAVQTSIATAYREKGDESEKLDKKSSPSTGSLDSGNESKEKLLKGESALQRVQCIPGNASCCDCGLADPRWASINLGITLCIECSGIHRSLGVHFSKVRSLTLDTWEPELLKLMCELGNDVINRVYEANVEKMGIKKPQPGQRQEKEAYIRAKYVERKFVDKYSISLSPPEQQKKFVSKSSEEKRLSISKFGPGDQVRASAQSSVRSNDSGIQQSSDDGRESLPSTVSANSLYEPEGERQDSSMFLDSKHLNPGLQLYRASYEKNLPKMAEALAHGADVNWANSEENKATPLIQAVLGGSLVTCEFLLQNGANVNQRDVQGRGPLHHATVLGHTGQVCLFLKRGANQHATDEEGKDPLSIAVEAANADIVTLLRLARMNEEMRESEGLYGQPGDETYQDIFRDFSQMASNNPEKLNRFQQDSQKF

Compound in the first assay: ClCC(=O)N[C@H]1CCCc2ccccc12
The assay is described as follows: log2 mean competition ratio of IA-DTB cysteine labelling (DMSO/compound) (log2 ratio); higher = stronger cysteine engagement by compound. As to conditions: 50 µM; treatment time: 4 h; cell line lysate: HEK293T. As to the method: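 IA-DTB competitive cysteine chemoproteomics in HEK293T RIPA lysate. Lysates were treated with compound 29 or 30 at 50 or 200 µM for 4 h, then IA-DTB (500 µM, 1 h), trypsin-digested, NeutrAvidin-enriched and analysed by diaPASEF. Competition ratio = intensity DMSO / intensity compound (n=4 treated, n=64 DMSO); binding: mean log2 CR ≥ 1 and p ≤ 0.05 plus QC filters. Target is the cysteine site.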
Regarding ACADSB C385 (UniProt P45954), the “log2 mean competition ratio” value came to 0.479.
The same measure, in the same setting: the result for AAMP C428 (UniProt Q13685) reads -0.177; that for AASS C342, -0.267.
On the same count and under the same terms, the result for AASS C765 reads -0.0191; that for AAAS C368 (UniProt Q9NRG9), -0.00177; that for ACAA1 C218 (UniProt P09110), 0.275.
On to ABHD16A C248 (UniProt O95870), for which the “log2 mean competition ratio” value was -0.17.
With AARSD1 C266 (UniProt Q9BTE6), the “log2 mean competition ratio” value was found to be 0.123.
Regarding ABCB10 C582 (UniProt Q9NRK6), the “log2 mean competition ratio” value was -0.609.
On the same count and under the same terms, in the case of ABHD5 C140 (UniProt Q8WTS1) it was -0.0333.
The same measure, in the same setting: the result for ABCC1 C730 (UniProt P33527) reads -0.00046; that for ABCB8 C323 (UniProt Q9NUT2), 0.395.
Still for that read-out and setting: in the case of ACADVL C237 (UniProt P49748) it was 0.197; in that of ABHD10 C100 (UniProt Q9NUJ1), -0.288; in that of ABHD6 C134 (UniProt Q9BV23), -0.358.
For the target ACADSB C261 (UniProt P45954), the “log2 mean competition ratio” value was determined as 0.243.
Same read-out and setting: the result for ABCC5 C280 (UniProt O15440) reads 0.157; that for ACAD9 C271 (UniProt Q9H845), -0.36.
Same read-out and setting: the result for ACAP2 C321 (UniProt Q15057) reads -0.111; that for ACAD8 C351 (UniProt Q9UKU7), -0.377.

The same assay, now with this note: 200 µM; treatment time: 4 h; cell line lysate: HEK293T.
For the target ACADSB C385 (UniProt P45954), the “log2 mean competition ratio” value was -0.0194.
Still for that read-out and setting: in the case of AAMP C428 (UniProt Q13685) it was -0.229.
Same read-out and setting: the result for AASS C342 reads -0.316.
Same read-out and setting: the result for AASS C765 reads 0.0889; that for AAAS C368 (UniProt Q9NRG9), 0.0226; that for ACAA1 C218 (UniProt P09110), -0.311.
With ABHD16A C248 (UniProt O95870), the “log2 mean competition ratio” value amounted to 0.126.
Same read-out and setting: the result for AARSD1 C266 (UniProt Q9BTE6) reads 0.0466; that for ABCB10 C582 (UniProt Q9NRK6), -0.185.
The same measure, in the same setting: the result for ABHD5 C140 (UniProt Q8WTS1) reads 0.311; that for ABCC1 C730 (UniProt P33527), -0.185; that for ABCB8 C323 (UniProt Q9NUT2), -0.0646.
On to ACADVL C237 (UniProt P49748), for which the “log2 mean competition ratio” value is -0.132.
Same read-out and setting: in the case of ABHD10 C100 (UniProt Q9NUJ1) it was -0.168; in that of ABHD6 C134 (UniProt Q9BV23), 0.0785.
Same read-out and setting: in the case of ACADSB C261 (UniProt P45954) it was 0.219; in that of ABCC5 C280 (UniProt O15440), -0.112.
The same measure, in the same setting: the result for ACAD9 C271 (UniProt Q9H845) reads -0.222; that for ACAP2 C321 (UniProt Q15057), 0.159; that for ACAD8 C351 (UniProt Q9UKU7), -0.143.
